# Source: the supplement of paper PMC10849652
# By UniProt entry, the sequences of proteins in these tests, tags left out. Where a name states a change or a piece, a line headed by the entry shows the natural chain unless it says otherwise.
# UniProt Q70CQ2: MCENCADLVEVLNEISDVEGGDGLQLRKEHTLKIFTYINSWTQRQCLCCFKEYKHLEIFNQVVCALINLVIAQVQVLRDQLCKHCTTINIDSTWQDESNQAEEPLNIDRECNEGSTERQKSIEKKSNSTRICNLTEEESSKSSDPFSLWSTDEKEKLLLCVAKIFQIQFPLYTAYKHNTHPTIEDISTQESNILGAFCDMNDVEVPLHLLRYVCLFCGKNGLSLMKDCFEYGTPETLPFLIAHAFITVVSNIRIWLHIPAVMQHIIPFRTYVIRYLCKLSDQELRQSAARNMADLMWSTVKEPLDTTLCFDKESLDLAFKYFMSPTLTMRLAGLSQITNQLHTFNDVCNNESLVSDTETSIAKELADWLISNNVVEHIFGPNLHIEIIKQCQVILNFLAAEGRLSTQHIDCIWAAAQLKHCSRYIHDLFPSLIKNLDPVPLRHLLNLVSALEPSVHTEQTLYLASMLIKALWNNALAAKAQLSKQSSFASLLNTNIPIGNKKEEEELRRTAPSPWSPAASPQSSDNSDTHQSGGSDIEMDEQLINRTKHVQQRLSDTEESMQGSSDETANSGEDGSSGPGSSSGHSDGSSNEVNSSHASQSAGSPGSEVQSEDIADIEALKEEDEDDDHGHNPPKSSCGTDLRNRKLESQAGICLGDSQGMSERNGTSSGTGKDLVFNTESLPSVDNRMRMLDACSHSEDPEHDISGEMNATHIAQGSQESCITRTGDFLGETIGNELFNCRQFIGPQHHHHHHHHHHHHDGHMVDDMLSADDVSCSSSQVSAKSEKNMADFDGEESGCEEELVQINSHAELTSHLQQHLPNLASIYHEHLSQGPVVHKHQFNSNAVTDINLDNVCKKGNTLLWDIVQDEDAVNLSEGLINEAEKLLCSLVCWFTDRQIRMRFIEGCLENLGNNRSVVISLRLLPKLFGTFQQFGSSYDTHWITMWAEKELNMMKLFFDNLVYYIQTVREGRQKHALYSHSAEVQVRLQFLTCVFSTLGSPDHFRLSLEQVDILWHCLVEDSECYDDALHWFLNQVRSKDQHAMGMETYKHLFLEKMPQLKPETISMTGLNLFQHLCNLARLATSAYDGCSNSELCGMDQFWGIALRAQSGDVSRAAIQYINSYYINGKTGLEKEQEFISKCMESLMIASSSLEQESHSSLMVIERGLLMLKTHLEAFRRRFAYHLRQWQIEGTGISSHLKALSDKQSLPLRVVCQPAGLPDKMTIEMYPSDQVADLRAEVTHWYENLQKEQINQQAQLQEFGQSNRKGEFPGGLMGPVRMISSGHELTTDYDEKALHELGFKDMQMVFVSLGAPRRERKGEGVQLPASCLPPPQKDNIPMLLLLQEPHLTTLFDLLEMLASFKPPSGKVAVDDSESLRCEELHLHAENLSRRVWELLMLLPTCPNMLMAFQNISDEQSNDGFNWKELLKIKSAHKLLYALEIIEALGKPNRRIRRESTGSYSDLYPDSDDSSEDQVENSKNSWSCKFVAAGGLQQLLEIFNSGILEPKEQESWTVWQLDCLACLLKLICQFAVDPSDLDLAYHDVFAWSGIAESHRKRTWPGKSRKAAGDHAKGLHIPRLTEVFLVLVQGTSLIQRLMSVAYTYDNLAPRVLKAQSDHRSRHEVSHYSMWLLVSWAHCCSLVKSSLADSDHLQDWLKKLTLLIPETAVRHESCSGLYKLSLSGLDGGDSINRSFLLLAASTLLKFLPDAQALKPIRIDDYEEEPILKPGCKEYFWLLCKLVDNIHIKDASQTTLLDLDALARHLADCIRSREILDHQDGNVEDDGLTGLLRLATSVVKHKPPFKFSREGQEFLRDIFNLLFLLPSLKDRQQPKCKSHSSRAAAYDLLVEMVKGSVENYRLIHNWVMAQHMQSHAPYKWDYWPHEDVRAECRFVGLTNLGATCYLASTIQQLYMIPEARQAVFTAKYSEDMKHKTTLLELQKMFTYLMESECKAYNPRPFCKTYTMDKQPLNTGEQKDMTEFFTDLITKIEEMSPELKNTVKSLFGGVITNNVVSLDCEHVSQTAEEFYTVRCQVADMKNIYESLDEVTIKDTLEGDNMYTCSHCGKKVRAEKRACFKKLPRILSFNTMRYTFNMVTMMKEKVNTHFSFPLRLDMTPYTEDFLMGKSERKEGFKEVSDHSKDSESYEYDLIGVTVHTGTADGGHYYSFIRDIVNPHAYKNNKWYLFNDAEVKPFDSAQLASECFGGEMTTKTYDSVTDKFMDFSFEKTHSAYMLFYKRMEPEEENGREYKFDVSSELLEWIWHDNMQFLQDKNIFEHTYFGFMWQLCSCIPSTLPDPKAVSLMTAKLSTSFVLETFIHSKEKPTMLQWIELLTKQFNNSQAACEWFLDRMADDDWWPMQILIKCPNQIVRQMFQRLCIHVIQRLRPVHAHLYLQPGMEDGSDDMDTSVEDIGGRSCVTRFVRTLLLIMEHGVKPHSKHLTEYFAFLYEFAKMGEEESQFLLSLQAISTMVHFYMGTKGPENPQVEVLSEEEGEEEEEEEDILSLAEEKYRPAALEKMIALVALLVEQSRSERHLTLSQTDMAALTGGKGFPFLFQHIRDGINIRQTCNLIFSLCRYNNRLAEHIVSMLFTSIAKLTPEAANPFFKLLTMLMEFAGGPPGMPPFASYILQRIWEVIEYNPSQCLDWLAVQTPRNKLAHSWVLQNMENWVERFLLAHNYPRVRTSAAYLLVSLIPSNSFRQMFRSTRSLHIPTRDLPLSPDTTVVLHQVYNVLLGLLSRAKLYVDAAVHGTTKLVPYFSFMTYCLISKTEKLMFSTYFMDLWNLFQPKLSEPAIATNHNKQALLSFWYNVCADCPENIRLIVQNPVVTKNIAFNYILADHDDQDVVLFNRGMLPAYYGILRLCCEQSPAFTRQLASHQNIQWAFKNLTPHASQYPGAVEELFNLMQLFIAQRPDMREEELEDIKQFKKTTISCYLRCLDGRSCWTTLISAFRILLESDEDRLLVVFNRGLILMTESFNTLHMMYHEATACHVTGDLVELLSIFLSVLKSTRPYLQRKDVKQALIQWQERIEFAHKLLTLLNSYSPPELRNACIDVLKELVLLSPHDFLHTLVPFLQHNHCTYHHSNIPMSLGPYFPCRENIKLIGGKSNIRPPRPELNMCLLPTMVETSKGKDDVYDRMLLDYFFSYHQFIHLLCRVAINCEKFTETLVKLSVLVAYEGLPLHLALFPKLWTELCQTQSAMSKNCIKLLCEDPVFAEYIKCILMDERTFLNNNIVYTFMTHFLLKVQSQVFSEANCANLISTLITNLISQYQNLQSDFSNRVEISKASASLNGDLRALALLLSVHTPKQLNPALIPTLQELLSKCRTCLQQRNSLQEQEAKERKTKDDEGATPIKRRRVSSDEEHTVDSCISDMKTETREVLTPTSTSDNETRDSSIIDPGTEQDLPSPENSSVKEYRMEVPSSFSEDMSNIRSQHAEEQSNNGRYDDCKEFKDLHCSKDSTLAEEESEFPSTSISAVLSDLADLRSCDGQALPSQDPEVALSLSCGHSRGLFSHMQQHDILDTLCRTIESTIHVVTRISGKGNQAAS
# UniProt Q7Z6J8: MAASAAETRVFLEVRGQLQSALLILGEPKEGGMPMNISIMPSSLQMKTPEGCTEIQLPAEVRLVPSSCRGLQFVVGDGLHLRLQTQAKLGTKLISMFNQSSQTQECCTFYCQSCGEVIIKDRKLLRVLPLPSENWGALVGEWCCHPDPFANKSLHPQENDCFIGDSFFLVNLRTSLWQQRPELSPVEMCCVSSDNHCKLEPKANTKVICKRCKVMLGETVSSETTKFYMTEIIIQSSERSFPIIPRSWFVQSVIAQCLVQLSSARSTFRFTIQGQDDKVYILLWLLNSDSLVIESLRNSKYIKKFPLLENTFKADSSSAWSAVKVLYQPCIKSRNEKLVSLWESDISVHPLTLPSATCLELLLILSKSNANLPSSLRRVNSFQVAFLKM
# UniProt Q14146: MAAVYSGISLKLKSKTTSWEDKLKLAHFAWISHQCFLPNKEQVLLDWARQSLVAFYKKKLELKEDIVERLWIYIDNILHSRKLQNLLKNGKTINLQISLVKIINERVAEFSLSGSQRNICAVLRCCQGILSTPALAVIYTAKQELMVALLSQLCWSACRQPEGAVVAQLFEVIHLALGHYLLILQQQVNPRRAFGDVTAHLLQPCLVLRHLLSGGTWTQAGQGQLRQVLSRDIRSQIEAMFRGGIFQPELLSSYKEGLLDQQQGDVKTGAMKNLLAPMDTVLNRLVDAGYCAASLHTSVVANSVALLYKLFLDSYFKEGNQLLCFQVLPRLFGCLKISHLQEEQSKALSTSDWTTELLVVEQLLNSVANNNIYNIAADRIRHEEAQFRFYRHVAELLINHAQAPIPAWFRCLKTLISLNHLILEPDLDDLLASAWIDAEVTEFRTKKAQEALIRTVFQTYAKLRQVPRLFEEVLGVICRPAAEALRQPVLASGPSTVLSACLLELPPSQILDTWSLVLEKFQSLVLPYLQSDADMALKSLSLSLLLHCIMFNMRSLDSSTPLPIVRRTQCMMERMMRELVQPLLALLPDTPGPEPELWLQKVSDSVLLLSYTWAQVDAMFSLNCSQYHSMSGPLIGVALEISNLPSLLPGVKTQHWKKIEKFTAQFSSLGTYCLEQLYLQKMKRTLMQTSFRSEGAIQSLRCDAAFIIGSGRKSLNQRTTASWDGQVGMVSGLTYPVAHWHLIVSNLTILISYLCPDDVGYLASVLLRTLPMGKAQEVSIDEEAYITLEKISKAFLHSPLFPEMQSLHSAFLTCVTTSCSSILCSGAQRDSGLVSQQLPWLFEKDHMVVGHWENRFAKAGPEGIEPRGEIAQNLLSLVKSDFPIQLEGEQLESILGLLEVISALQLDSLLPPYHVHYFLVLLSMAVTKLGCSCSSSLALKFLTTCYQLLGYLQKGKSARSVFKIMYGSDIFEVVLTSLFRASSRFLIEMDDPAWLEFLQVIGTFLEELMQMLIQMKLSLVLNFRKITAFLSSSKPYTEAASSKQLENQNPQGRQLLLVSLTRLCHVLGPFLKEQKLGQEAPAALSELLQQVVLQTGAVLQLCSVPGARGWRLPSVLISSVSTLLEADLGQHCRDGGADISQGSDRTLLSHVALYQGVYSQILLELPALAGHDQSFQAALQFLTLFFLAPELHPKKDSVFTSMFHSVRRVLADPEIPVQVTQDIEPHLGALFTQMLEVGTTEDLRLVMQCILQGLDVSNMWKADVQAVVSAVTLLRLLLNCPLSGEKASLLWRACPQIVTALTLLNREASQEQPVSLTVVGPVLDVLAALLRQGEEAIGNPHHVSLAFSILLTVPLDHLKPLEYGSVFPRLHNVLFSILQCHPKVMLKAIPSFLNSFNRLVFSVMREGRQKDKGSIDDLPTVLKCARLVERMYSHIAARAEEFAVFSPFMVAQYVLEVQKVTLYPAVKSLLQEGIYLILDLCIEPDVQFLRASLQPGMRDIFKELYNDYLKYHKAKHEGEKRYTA
# UniProt Q9UDW1: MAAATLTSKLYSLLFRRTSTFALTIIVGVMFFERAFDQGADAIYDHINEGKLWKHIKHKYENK
# UniProt Q16739: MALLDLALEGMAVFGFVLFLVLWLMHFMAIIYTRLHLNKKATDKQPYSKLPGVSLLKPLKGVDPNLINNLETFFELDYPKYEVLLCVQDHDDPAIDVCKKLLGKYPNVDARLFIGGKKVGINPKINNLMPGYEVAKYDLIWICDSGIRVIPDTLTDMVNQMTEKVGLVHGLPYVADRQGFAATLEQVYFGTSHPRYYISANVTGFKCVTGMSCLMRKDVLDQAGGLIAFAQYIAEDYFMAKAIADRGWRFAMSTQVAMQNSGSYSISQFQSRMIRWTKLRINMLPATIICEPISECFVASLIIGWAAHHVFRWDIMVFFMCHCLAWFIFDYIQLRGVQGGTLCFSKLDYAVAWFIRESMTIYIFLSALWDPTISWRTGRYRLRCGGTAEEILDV
# UniProt Q9BTM9: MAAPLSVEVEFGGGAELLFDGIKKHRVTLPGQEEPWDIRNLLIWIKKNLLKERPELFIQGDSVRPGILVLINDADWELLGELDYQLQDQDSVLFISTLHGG
# UniProt Q8IX04: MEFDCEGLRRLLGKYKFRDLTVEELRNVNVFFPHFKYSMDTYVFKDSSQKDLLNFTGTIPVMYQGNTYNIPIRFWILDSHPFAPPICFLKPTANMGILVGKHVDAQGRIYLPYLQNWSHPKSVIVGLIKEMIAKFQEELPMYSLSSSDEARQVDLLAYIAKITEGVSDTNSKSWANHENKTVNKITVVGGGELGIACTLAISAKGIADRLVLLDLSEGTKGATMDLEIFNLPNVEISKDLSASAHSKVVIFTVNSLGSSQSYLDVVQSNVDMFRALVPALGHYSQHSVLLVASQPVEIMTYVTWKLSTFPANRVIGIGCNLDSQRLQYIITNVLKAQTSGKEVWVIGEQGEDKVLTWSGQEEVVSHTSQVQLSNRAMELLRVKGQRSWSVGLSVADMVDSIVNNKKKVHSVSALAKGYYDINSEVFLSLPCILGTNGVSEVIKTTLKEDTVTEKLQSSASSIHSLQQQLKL
# UniProt Q15836, whole entry, looked up: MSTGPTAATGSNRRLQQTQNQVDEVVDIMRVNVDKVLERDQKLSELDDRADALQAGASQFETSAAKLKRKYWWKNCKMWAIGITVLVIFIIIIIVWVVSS
# This is one part of the list. Residues, ends and D or L forms follow the SMILES beside them. *: point of attachment. Cbz = O=C(OCc1ccccc1)*
# What was measured:
# Assay in all cases: log2 fold change, soluble protein after heating vs DMSO (PISA); higher = thermal stabilisation; K562 cells, 10 uM, 30 min; active = over 0.2 and 3.5 SD of the protein, either way, in both replicates (recomputed)
# IRAK-1-4 Inhibitor I = compound: C1COCCN1CCN2C3=CC=CC=C3N=C2NC(=O)C4=CC(=CC=C4)[N+](=O)[O-] [IRAK-1-4 Inhibitor I]
# Outline: (§1)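 Quantification of soluble protein used TMTpro 16plex LC-MS/MS, with channel sums equalised. Samples were the supernatant after 21,000xg for 90 min of pooled aliquots from K562 cells (2×10^6 cells/mL) treated with 10 μM compound for 30 min, heated for 3 min over 48°C-58°C, and extracted in PBS with 0.5% NP-40 at 4°C. Values, from duplicates, describe thermal stability against control samples on a log2 fold-change scale.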
# ibrutinib = compound: C=CC(=O)N1CCC[C@@H](n2nc(-c3ccc(Oc4ccccc4)cc3)c3c(N)ncnc32)C1 [ibrutinib]
# Outline: as §1
# [1] = compound: CC(=O)c1cnc2ccc(-c3cc(Cl)c(O)c(Cl)c3)nc2c1N[C@H]1CC[C@H](CN(C)C)CC1
# Outline: as §1
# ralimetinib = compound: CC(C)(C)Cn1c(N)nc2ccc(-c3[nH]c(C(C)(C)C)nc3-c3ccc(F)cc3)nc21 [ralimetinib]
# Outline: as §1
# [2] = compound: CC(C)(O)CC(=O)NCCn1ccc2ncnc(Nc3ccc(Oc4cccc(C(F)(F)F)c4)c(Cl)c3)c21
# Outline: as §1
# [3] = compound: CC(C)C1=C2N=C(C=C(N2N=C1)NCC3=CC=CC=C3)NCCCCCCN
# Outline: as §1
# [4] = compound: CC(C)C[C@@H](C=O)NC(=O)[C@H](CC(C)C)NC(=O)[C@H](CC(C)C)NC(=O)OCc1ccccc1
# Outline: as §1
# pinometostat = compound: CC(C)N(C[C@H]1O[C@@H](n2cnc3c(N)ncnc32)[C@H](O)[C@@H]1O)[C@H]1C[C@@H](CCc2nc3cc(C(C)(C)C)ccc3[nH]2)C1 [pinometostat]
# Outline: as §1
# [5] = compound: CC1=C(C2=C(C=C1)C(=O)C3=CC=CC=C3N2CCCN)C
# Outline: as §1
# [6] = compound: CC1=C(C(CC(=O)N1)C2=CC=C(C=C2)C(F)(F)F)C(=O)NC3=C(C=C4C(=C3)C=NN4)F
# Outline: as §1
Target,log2 fold change (IRAK-1-4 Inhibitor I),log2 fold change (ibrutinib),log2 fold change [1],log2 fold change (ralimetinib),log2 fold change [2],log2 fold change [3],log2 fold change [4],log2 fold change (pinometostat),log2 fold change [5],log2 fold change [6]
USP25 isoform 3 (UniProt Q9UHP3),inactive: 0.002,inactive: -0.002,inactive: -0.019,inactive: -0.027,inactive: 0.015,inactive: 0.001,inactive: 0.052,inactive: 0.001,inactive: 0.002,
USP9X (UniProt Q93008),inactive: -0.006,inactive: -0.041,inactive: -0.011,inactive: 0.02,inactive: -0.117,inactive: -0.177,inactive: 0.01,inactive: 0.042,inactive: 0.038,
USP22 (UniProt Q9UPT9),inactive: -0.038,inactive: -0.111,inactive: -0.184,,inactive: -0.176,inactive: -0.06,,inactive: 0.029,inactive: 0.046,inactive: -0.024
UTP14A (UniProt Q9BVJ6),inactive: -0.13,inactive: -0.026,inactive: 0.088,inactive: 0.11,inactive: 0.007,inactive: -0.113,inactive: 0.154,inactive: 0.262,active: -0.708,
USP7 (UniProt Q93009),inactive: -0.102,inactive: -0.021,inactive: -0.078,inactive: 0,inactive: -0.172,inactive: -0.198,inactive: 0.012,inactive: 0.024,inactive: 0.17,
USP34 (UniProt Q70CQ2),inactive: 0.005,inactive: -0.091,inactive: -0.033,inactive: -0.017,inactive: -0.14,inactive: -0.114,inactive: -0.016,inactive: 0.079,inactive: -0.176,
UBE3D (UniProt Q7Z6J8),inactive: 0.029,inactive: 0.047,inactive: 0.026,inactive: 0.015,inactive: 0.088,inactive: 0.011,inactive: -0.061,inactive: -0.012,inactive: 0.051,
URB2 (UniProt Q14146),inactive: 0.075,inactive: -0.229,inactive: 0.161,,,inactive: -0.391,,inactive: 0.13,,inactive: 0.075
UNC119B (UniProt A6NIH7),inactive: 0.113,inactive: 0.08,inactive: 0.028,inactive: 0.014,,inactive: 0.272,inactive: 0.088,inactive: 0.126,inactive: -0.047,
UQCR10 (UniProt Q9UDW1),inactive: 0.036,inactive: 0.019,inactive: -0.077,inactive: -0.05,inactive: -0.056,inactive: 0.031,inactive: -0.127,inactive: -0.016,inactive: 0.057,
UNK (UniProt Q9C0B0),inactive: -0.058,inactive: -0.003,inactive: -0.065,,,inactive: 0.007,,inactive: 0.02,inactive: 0.102,inactive: -0.032
UPF3B (UniProt Q9BZI7),inactive: -0.099,inactive: 0.158,inactive: 0.265,inactive: 0.27,inactive: 0.057,inactive: -0.02,inactive: 0.19,inactive: 0.394,inactive: -0.183,
USP3 (UniProt Q9Y6I4),inactive: 0.035,inactive: -0.083,inactive: -0.126,inactive: -0.013,inactive: -0.107,inactive: -0.146,inactive: -0.145,inactive: -0.075,inactive: -0.006,
UGCG (UniProt Q16739),inactive: -0.071,inactive: 0,inactive: -0.115,inactive: -0.068,inactive: 0.02,inactive: 0.046,inactive: 0.199,inactive: -0.023,inactive: 0.025,
UTP18 (UniProt Q9Y5J1),inactive: -0.11,inactive: -0.009,,inactive: 0.189,inactive: 0.062,inactive: 0.15,inactive: 0.11,inactive: 0.295,,inactive: -0.077
UGP2 (UniProt C9JWG0),inactive: 0.141,inactive: 0.015,inactive: -0.181,,,,,inactive: 0.037,,inactive: 0.174

Target,log2 fold change (IRAK-1-4 Inhibitor I),log2 fold change (ibrutinib),log2 fold change [1],log2 fold change (ralimetinib),log2 fold change [2],log2 fold change [3],log2 fold change [4],log2 fold change (pinometostat),log2 fold change [5],log2 fold change [6]
UBIAD1 (UniProt Q9Y5Z9),inactive: 0.012,inactive: -0.009,inactive: -0.055,inactive: -0.032,,inactive: -0.069,inactive: 0.029,inactive: -0.104,inactive: 0.047,
"VARS2, A0A0G2JL52",inactive: 0.012,inactive: 0.014,inactive: -0.03,inactive: 0.064,inactive: -0.074,inactive: -0.177,inactive: 0.025,inactive: -0.014,inactive: 0.082,
URM1 isoform 2 (UniProt Q9BTM9),inactive: 0.055,inactive: -0.05,inactive: -0.024,inactive: -0.114,,inactive: -0.074,inactive: -0.073,inactive: 0.006,inactive: 0.1,inactive: -0.07
USP48 isoform 8 (UniProt Q86UV5),inactive: -0.09,inactive: -0.071,inactive: -0.014,inactive: 0.046,inactive: -0.207,inactive: -0.278,inactive: 0.052,inactive: 0.008,inactive: -0.101,
USP14 (UniProt P54578),inactive: -0.013,inactive: -0.045,inactive: -0.004,inactive: 0.021,inactive: -0.028,inactive: -0.068,inactive: 0.044,inactive: -0.031,inactive: 0.014,
UBTF (UniProt P17480),inactive: -0.132,inactive: -0.016,inactive: -0.239,inactive: 0.113,,inactive: -0.071,inactive: 0.259,inactive: 0.071,,
USP24 (UniProt Q9UPU5),inactive: 0.052,inactive: 0.086,inactive: 0.156,inactive: -0.077,inactive: -0.093,inactive: 0.004,inactive: -0.043,inactive: -0.026,inactive: 0.017,
UBE4A isoform 2 (UniProt Q14139),inactive: -0.114,inactive: -0.125,inactive: -0.017,inactive: 0.02,inactive: -0.032,active: -0.376,inactive: 0.096,inactive: 0.093,inactive: 0.041,
UFM1 (UniProt P61960),inactive: 0.219,inactive: 0.026,inactive: 0.003,inactive: 0,inactive: -0.117,inactive: 0.06,inactive: 0.055,inactive: 0.013,inactive: 0.133,
UTP4 (UniProt Q969X6),inactive: 0.003,inactive: 0.002,inactive: 0.02,inactive: -0.07,inactive: 0.045,active: 0.233,inactive: -0.014,inactive: -0.017,active: 0.343,
UEVLD (UniProt Q8IX04),inactive: 0.061,inactive: 0.09,inactive: 0.014,,inactive: -0.231,inactive: -0.159,,inactive: 0.109,inactive: 0.224,inactive: -0.042
VAMP7 (UniProt P51809),inactive: 0.018,inactive: -0.048,inactive: -0.041,inactive: -0.022,inactive: -0.006,inactive: -0.169,inactive: -0.001,inactive: -0.027,inactive: 0.025,
UTP3 (UniProt Q9NQZ2),inactive: -0.053,inactive: 0.072,inactive: 0.031,inactive: 0.021,inactive: 0.062,inactive: -0.062,inactive: 0.253,inactive: 0.159,inactive: -0.571,
UCHL5 isoform 3 (UniProt Q9Y5K5),inactive: -0.012,inactive: -0.222,inactive: -0.021,inactive: 0.006,inactive: -0.357,inactive: -0.143,inactive: 0.077,inactive: -0.044,inactive: 0.028,
USO1 isoform 2 (UniProt O60763),inactive: 0.05,inactive: -0.025,inactive: 0.066,inactive: 0.004,inactive: -0.061,inactive: -0.108,inactive: -0.01,inactive: 0.008,inactive: -0.005,
VAMP3 (UniProt Q15836),inactive: -0.048,inactive: 0.01,,,inactive: 0.035,inactive: 0.153,,inactive: -0.145,inactive: 0.139,inactive: -0.016

# Shown with tabs: part of the list above.
Target	log2 fold change (IRAK-1-4 Inhibitor I)	log2 fold change (ibrutinib)	log2 fold change [1]	log2 fold change (ralimetinib)	log2 fold change [2]	log2 fold change [3]	log2 fold change [4]	log2 fold change (pinometostat)	log2 fold change [5]	log2 fold change [6]
UFM1 (UniProt P61960)	inactive: 0.219	inactive: 0.026	inactive: 0.003	inactive: 0	inactive: -0.117	inactive: 0.06	inactive: 0.055	inactive: 0.013	inactive: 0.133	
UEVLD (UniProt Q8IX04)	inactive: 0.061	inactive: 0.09	inactive: 0.014		inactive: -0.231	inactive: -0.159		inactive: 0.109	inactive: 0.224	inactive: -0.042
